Measurements as given in patent publication US12076444B2, “Methods and systems for depositing active ingredients on substrates” (Purdue Research Foundation, priority 2015, dated 2024).
Where two headings read alike, the source gives them in different places.

## COc1ccc2cc([C@H](C)C(=O)O)ccc2c1 [naproxen]
naproxen-PEG 3350 dosage forms subjected to 70° C. for 15 min
  Chemical stability under production (HPLC): stable
naproxen-Pluronic F38 dosage forms subjected to 70° C. for 15 min
  Chemical stability under production (HPLC): stable
